These are yes or no findings as the source states them, for the method shown. Tags and fused reporters may be left off the sequences shown.
What was measured:
[1] = target: T1, His6-tagged human glycolipid transfer protein (GLTP) (human), Q9NZD2; experiment: AUC; sedimentation equilibrium, GSL-free (apo) GLTP; 7, 15 and 30 μM; 19,000 and 22,000 rpm; 20 °C; 20 mM Tris-HCl (pH 8.0), 150 mM NaCl; both purified; settings: remark: other sources report otherwise
T1 chain: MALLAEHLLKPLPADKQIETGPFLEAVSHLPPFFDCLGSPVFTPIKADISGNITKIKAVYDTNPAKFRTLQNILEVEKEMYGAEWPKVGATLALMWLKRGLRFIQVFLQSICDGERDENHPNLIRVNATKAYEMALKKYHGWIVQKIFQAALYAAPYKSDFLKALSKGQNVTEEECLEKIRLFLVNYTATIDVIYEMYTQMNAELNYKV

[2] = target: T1, His6-tagged human glycolipid transfer …; experiment: AUC; sedimentation equilibrium, GLTP complexes with n-hexyl-β-D-glucoside, 18:1 LacCer or 24:1 GalCer; 7, 15 and 30 μM; 19,000 and 22,000 rpm; 20 °C; 20 mM Tris-HCl (pH 8.0), 150 mM NaCl; both purified; settings: remark: other sources report otherwise

binding [1]: no binding (tested: 30 μM)
binding [2]: no binding (tested: 30 μM)
B1: His6-tagged human glycolipid transfer protein (GLTP), Q9NZD2 1-209 (protein)
chain: T1 chain

— paper PMC1618416, “The Liganding of Glycolipid Transfer Protein Is Controlled by Glycolipid Acyl Structure” (PLoS Biology, 2006)
